Laboratory results published in the supplement of paper PMC7024190.
Structures can show the parent of a compound that is named as a salt. The list shows a part of the results. This data set is noisy: repeats of one test often differ as much as different tests do.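 A first-round screen of about ten thousand compounds sought those raising reporter output, using human embryonic kidney cells briefly transfected with a plasmid carrying a Renilla luciferase gene driven by the HSV-TK promoter.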

test system: HEK 293FT; assay: log relative Renilla luciferase luminescence (reporter expression vs reference, reference not stated) (log (base not stated)); higher = higher recombinant reporter expression; details: 10 µM; time after transfection 48 h

`CC(=O)N(CC(O)CO)c1c(I)c(C(=O)NCCO)c(I)c(C(=O)NCC(O)CO)c1I` (stereo not given) [ioxilan] and `CC(=O)N(CC(O)CO)c1c(I)c(C(=O)NCC(O)CO)c(I)c(C(=O)NCC(O)CO)c1I` (stereo not given) [iohexol] are within 0.2 log units of each other in log: 0.0534 for the first, 0.0836 for the second.

`CN1CCN(CC(=O)N2c3ccccc3C(=O)Nc3cccnc32)CC1` [pirenzepine hydrochloride] and `N#Cc1ccc2c(c1)N(CCCN1CCC(O)CC1)c1ccccc1S2` [periciazine] are within 0.2 log units of each other in log: -0.0398 for the first, 0.00411 for the second.

`COC(=O)Nc1nc2cc(Sc3ccccc3)ccc2[nH]1` [fenbendazole] and `CCOC(=O)Nc1nc2ccccc2[nH]1` [lobendazole] are within 0.2 log units of each other in log: -0.0952 for the first, 0.0647 for the second.

`Cn1c(=O)c2c(ncn2CC2OCCO2)n(C)c1=O` [doxofylline] and `CC#CCn1c(N2CCC[C@@H](N)C2)nc2c1c(=O)n(Cc1nc(C)c3ccccc3n1)c(=O)n2C` [linagliptin] are within 0.2 log units of each other in log: 0.122 for the first, -0.0427 for the second.

`CC[C@H](C)[C@H](N)C(=O)O` [isoleucine (l)] and `CC(C)CC(NC(=O)[C@H](C)N)C(=O)O` (mixture of isomers) [alanyl-dl-leucine] are within 0.2 log units of each other in log: 0.114 for the first, -0.0711 for the second.

First: O=c1[nH]cnc2nc[nH]c12 [hypoxanthine]
Second: CCC1(c2ccccc2)C(=O)NCNC1=O [primidone]
The log of the first is higher: 0.303 for the first, -0.00588 for the second.

`CCOc1nc2cccc(C(=O)O)c2n1Cc1ccc(-c2ccccc2-c2nnn[nH]2)cc1` [candesartan] and `CCCOc1ccccc1-c1nc2[nH]nnc2c(=O)[nH]1` [zaprinast] are within 0.2 log units of each other in log: -0.0698 for the first, -0.0677 for the second.

`C[C@@](Cc1ccc(O)c(O)c1)(NN)C(=O)O` [carbidopa] and `NC[C@H](O)c1ccc(O)c(O)c1` [norepinephrine] are within 0.2 log units of each other in log: 0.0697 for the first, -0.0997 for the second.

First: Nc1ncnc2c1ncn2[C@@H]1O[C@H](CO)[C@@H](O)[C@@H]1O [vidarabine]
Second: COC(=O)C1=CO[C@@H](O[C@@H]2O[C@H](CO)[C@@H](O)[C@H](O)[C@H]2O)[C@H]2[C@@H]1C(=O)C[C@@H]2C [verbenalin]
The log of the first is lower: -0.213 for the first, 0.0273 for the second.

Going from `CCCCC(CC)COC(=O)CC(C(=O)OCC(CC)CCCC)S(=O)(=O)O` (stereo not given) [docusate sodium] to `CCCCOc1cc(C(=O)OCCN(CC)CC)ccc1N` [benoxinate hydrochloride], the log rises from -1.26 to 0.1.

`C[C@H]1C[C@H]2[C@@H]3CCC4=CC(=O)C=C[C@]4(C)[C@@]3(F)[C@@H](O)C[C@]2(C)[C@@]1(O)C(=O)COP(=O)(O)O` [betamethasone sodium phosphate] and `CC(=O)O[C@]1(C)CC[C@@]23C[C@H]1C(C)(C)[C@@H]2CC[C@H]3C` [cedryl acetate] are within 0.2 log units of each other in log: 0.114 for the first, 0.0797 for the second.

`COc1cc(-c2ccc(/N=N/c3ccc4c(S(=O)(=O)O)cc(S(=O)(=O)O)c(N)c4c3O)c(OC)c2)ccc1/N=N/c1ccc2c(S(=O)(=O)O)cc(S(=O)(=O)O)c(N)c2c1O` [chicago sky blue] and `COc1ccc(-c2oc3cc(OC)c(OC)c(OC)c3c(=O)c2OC)cc1OC` [hexamethylquercetagetin] are within 0.2 log units of each other in log: 0.0267 for the first, 0.0188 for the second.

Compared with `CN(C)CCC(c1ccc(Br)cc1)c1ccccn1` (stereo not given) [brompheniramine maleate], `c1ccc(-c2ccc(C(c3ccccc3)n3ccnc3)cc2)cc1` (stereo not given) [bifonazole] is lower in log: 0.272 for the first, -0.032 for the second.

`O=C1CC[C@@H](C(=O)N2CSC[C@H]2C(=O)O)N1` [pidotimod] and `CC(C)[N+]1(C)[C@@H]2CC[C@H]1C[C@@H](OC(=O)C(CO)c1ccccc1)C2` (stereo not given in full) [ipratropium bromide] are within 0.2 log units of each other in log: 0.00202 for the first, -0.101 for the second.

First: Oc1c(Cl)cc(Cl)c2cccnc12 [chloroxine]
Second: CN[C@H]1CC[C@@H](c2ccc(Cl)c(Cl)c2)c2ccccc21 [sertraline hydrochloride]
The log of the first is lower: -1.04 for the first, 0.0308 for the second.

`C[C@]12CC[C@@H]3c4ccc(O)cc4C[C@@H](CCCCCCCCC[S+]([O-])CCCC(F)(F)C(F)(F)F)[C@H]3[C@@H]1CC[C@@H]2O` (stereo not given in full) [fulvestrant] and `COc1cc(CNC(=O)CCCC/C=C/C(C)C)ccc1O` [capsaicin] are within 0.2 log units of each other in log: 0.0209 for the first, -0.176 for the second.

First: O=C(NCCCN1CCOCC1)c1ccc(Cl)cc1 [eprobemide]
Second: CCN(CC)CCNC(=O)c1ccc(N)cc1 [procainamide hydrochloride]
The log of the first is higher: 0.257 for the first, -0.105 for the second.

`COC(=O)c1c(OC)cc2c(c1C)Oc1c(Cl)c(O)c(Cl)c(C)c1C(=O)O2` [gangaleoidin] and `COc1cc(O)c2c(=O)cc(C)oc2c1CC=C(C)C` [heteropeucenin, methyl ether] are within 0.2 log units of each other in log: 0.0319 for the first, 0.0752 for the second.

`CO/N=C(\C(=O)N[C@@H]1C(=O)N2C(C(=O)O)=C(COC(C)=O)CS[C@H]12)c1csc(N)n1` [cefotaxime sodium] and `O=C(O)C1=C(CSc2nnnn2CS(=O)(=O)O)CS[C@@H]2[C@H](NC(=O)[C@H](O)c3ccccc3)C(=O)N12` [cefonicid sodium] are within 0.2 log units of each other in log: -0.0177 for the first, 0.113 for the second.

Going from `C=C[C@](C)(O)CC[C@@H]1[C@@]2(C)CCCC(C)(C)[C@@H]2CC[C@@]1(C)O` [sclareol] to `Cc1cc(C(C)(C)C)cc(C)c1CC1=NCCN1` [xylometazoline hydrochloride], the log falls from 0.11 to -0.172.

Compared with `O=C(/C=C/c1ccc(O)c(O)c1)O[C@H](Cc1ccc(O)c(O)c1)C(=O)O` [rosmarinic acid], `O=C(O)c1cc(=O)c(O)c2c(O)c(O)c(O)cc2c1` [purpurogallin-4-carboxylic acid] is higher in log: -0.0963 for the first, 0.104 for the second.

First: COC(=O)[C@H](Cc1ccccc1)NC(=O)[C@@H](N)CC(=O)O [aspartame]
Second: COC(=O)C(O)c1ccccc1 (stereo not given) [mandelic acid, methyl ester]
The log of the first is lower: -1.6 for the first, -0.138 for the second.

`OC[C@@H](O)[C@@H](O[C@@H]1O[C@H](CO)[C@@H](O)[C@H](O)[C@H]1O)[C@H](O)[C@@H](O)CO` [glucitol-4-gucopyanoside] and `NC[C@H]1O[C@H](O[C@H]2[C@H](O)[C@@H](O[C@H]3O[C@H](CO)[C@@H](O)[C@H](N)[C@H]3O)[C@H](N)C[C@@H]2N)[C@H](N)C[C@@H]1O` [tobramycin] are within 0.2 log units of each other in log: 0.072 for the first, 0.139 for the second.

`C[N+](C)(C)CC(O)CC(=O)[O-]` (stereo not drawn) [carnitine (dl) hydrochloride] and `CC(C)(CO)[C@@H](O)C(=O)NCCC(=O)O` [pantothenic acid(d) na salt] are within 0.2 log units of each other in log: -0.118 for the first, 0.0161 for the second.

Compared with `CC(=O)Nc1c(I)cc(I)c(C(=O)O)c1I` [acetriazoic acid], `CC(=O)Nc1ccc(OC(=O)c2ccccc2O)cc1` [acetaminosalol] is lower in log: 0.29 for the first, 0.0354 for the second.

`Cc1cc2cc3c(C)cc(=O)oc3c(C)c2o1` [trioxsalen] and `COc1cc(OC)c2ccc(=O)oc2c1` [citropten] are within 0.2 log units of each other in log: 0.00714 for the first, 0.0913 for the second.

`CC(=O)Nc1nnc(S(N)(=O)=O)s1` [acetazolamide] and `Nc1ccc(S(=O)(=O)Nc2nccs2)cc1` [sulfathiazole] are within 0.2 log units of each other in log: -0.0145 for the first, -0.0356 for the second.

Compared with `COC1=CC(=O)C(O)=C/C1=C\C=C\c1ccccc1` [obtusaquinone], `CCCCC1C(=O)N(c2ccccc2)N(c2ccc(O)cc2)C1=O` (stereo not given) [oxyphenbutazone] is higher in log: -1.27 for the first, -0.0548 for the second.

First: CC(C)Oc1ccc2c(=O)c(-c3ccccc3)coc2c1 [ipriflavone]
Second: O=C1c2ccccc2C(=O)c2c(O)c(O)cc(O)c21 [purpurin]
The log of the first is lower: -1.38 for the first, 0.098 for the second.

`O=C(CCCl)NCCc1ccccc1` [fenaclon] and `CCCCCCOc1ccccc1C(N)=O` [exalamide] are within 0.2 log units of each other in log: 0.103 for the first, 0.00499 for the second.

First: O=C(Oc1cc(O)cc2c1C[C@@H](OC(=O)c1cc(O)c(O)c(O)c1)[C@@H](c1cc(O)c(O)c(O)c1)O2)c1cc(O)c(O)c(O)c1 [epigallocatechin 3,5-digallate]
Second: O=c1c(O)c(-c2ccc(O)cc2)oc2cc(O)cc(O)c12 [kaempferol]
The log of the first is higher: 0.253 for the first, -0.0136 for the second.

`CC[C@H]1OC(=O)[C@H](C)[C@@H](O[C@H]2C[C@@](C)(OC)[C@@H](O)[C@H](C)O2)[C@H](C)[C@@H](O[C@@H]2O[C@H](C)C[C@H](N(C)C)[C@H]2O)[C@](C)(O)C[C@@H](C)CN(C)[C@H](C)[C@@H](O)[C@]1(C)O` [azithromycin] and `COC(=O)C[C@H]1C2(C)CC34OC5(C)O[C@@]6([C@H](OC(C)=O)C(OC(C)=O)[C@]7(C)C(/C(=C(/O)C(C)C)C(=O)O[C@H]7c7ccoc7)[C@@]6(O5)[C@H](OC(C)=O)[C@@]3(O)C2OC(=O)C(C)C)[C@]14C` (stereo not given in full) [bussein] are within 0.2 log units of each other in log: 0.245 for the first, 0.0894 for the second.

Compared with `Cc1ccc(-c2cc(C(F)(F)F)nn2-c2ccc(S(N)(=O)=O)cc2)cc1` [celecoxib], `COc1ccc(Cl)cc1C(=O)NCCc1ccc(S(=O)(=O)NC(=O)NC2CCCCC2)cc1` [glyburide] is lower in log: 0.255 for the first, -0.121 for the second.

`O=C(O)c1ccc[n+]([O-])c1` [oxiniacic acid] and `CCN(CC)C(=O)C1(c2ccccc2)CC1CN` (stereo not given) [milnacipran hydrochloride] are within 0.2 log units of each other in log: 0.0472 for the first, 0.0866 for the second.

`CCN(CCCCOC(=O)c1ccc(OC)c(OC)c1)C(C)Cc1ccc(OC)cc1` (stereo not given) [mebeverine hydrochloride] and `COc1cc2nc(N3CCN(C(=O)C4COc5ccccc5O4)CC3)nc(N)c2cc1OC` (stereo not given) [doxazosin mesylate] are within 0.2 log units of each other in log: 0.00335 for the first, -0.16 for the second.

First: CCN(CC)CCOCCOC(=O)C1(c2ccccc2)CCCC1 [carbetapentane citrate]
Second: O=C(CCBr)N1CCN(C(=O)CCBr)CC1 [pipobroman]
The log of the first is higher: 0.063 for the first, -0.566 for the second.

`Cc1cc(O)c2c(c1O)C(=O)c1c(O)cc(C)c(O)c1C2=O` [1,4,5,8-tetrahydroxy-2,6-dimethylanthroquinone] and `CCCCCCNC(=O)n1cc(F)c(=O)[nH]c1=O` [carmofur] are within 0.2 log units of each other in log: 0.0279 for the first, 0.0261 for the second.

`N[C@H]1CONC1=O` [levcycloserine] was tested, and the log was 0.0656.
